Measured values: the supplement of paper PMC3334620
Over roughly 33,000 sequences, “E-score (-0.5 to 0.5)” has its median near -0.0059; the highest 2% begin near 0.26. The list shows a part of the results.

Molecular target: T1, Cin5 (UniProt P40917)
T1 sequence: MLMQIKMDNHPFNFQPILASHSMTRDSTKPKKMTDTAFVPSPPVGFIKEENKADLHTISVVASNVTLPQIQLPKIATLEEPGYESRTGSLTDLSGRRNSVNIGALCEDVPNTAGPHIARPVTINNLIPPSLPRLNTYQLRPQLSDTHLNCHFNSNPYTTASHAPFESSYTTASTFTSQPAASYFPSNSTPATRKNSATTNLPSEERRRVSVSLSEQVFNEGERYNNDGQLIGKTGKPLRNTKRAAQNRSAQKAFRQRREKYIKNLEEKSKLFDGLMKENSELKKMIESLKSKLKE
Experiment: PBM E-score (8-mer binding enrichment) (E-score (-0.5 to 0.5)); higher = stronger / more preferred TF binding
Settings: protein concentration: 100 nM; construct: GST-full length
Procedure, shortened: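 Detection of bound protein used fluorescent anti-GST, with scans normalised by masliner. The proteins were GST-tagged yeast transcription factors applied at about 100-200 nM to universal all-10-mer Agilent arrays made double-stranded by primer extension. Each ungapped eight-base word, pooled with its reverse complement, was scored with an E-score from the Universal PBM Analysis Suite.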

Sequence | PBM E-score
GACCGCTA | -0.245
TAACATAA | 0.317
GGTATAAA | 0.154
CCTTCATC | -0.183
GAATGCTA | 0.00429
GGCTTCTA | -0.13
ACACCACC | -0.162
GCCATTCC | -0.0704
ATTCTGTG | 0.216
GGACTCGA | -0.127
TACCACGA | 0.00714
CGAAGCTC | -0.318
ATACGGTC | -0.0689
ATTGGTTC | 0.146
ATTGCGCA | 0.119
CGGAATGA | 0.146
AGACAGAG | -0.0616
ATGCAGCC | -0.0465
AAGCGAGG | 0.00915
CGACACAC | 0.0168
GATCGAGA | 0.138
CAAAACCG | 0.0293
GACTAAAC | -0.0118
CAAGCGTG | 0.00333
TCTATACA | -0.0622

Sequence | PBM E-score
GAAAGATA | 0.31
GGTGGCCA | -0.106
AATCCGAC | 0.0196
AGTGGGCG | 0.0596
CGTACTAA | 0.203
CTGTACTC | -0.115
CGACTGAA | -0.117
ACCCCCCA | -0.474
CGCTCCGA | 0.0457
ACAATGGA | 0.127
ACGCTTCC | -0.00759
CGATTAGA | 0.0608
GGTACCTA | -0.233
AGACTAGG | -0.104
AACCTCGT | 0.0493
ATCTTAGG | -0.0522
CCCACAGA | -0.0683
GTGGTGGA | -0.169
ATCAGATA | 0.165
CGGATAGA | 0.0855
GCCCAGCA | -0.0867
CAGAGACG | 0.051
AGTGAGAG | -0.15
AGATAACC | 0.0256
ACTACCAA | -0.0381

Sequence | PBM E-score
ACCGCGGA | 0.212
AGGAAGAA | -0.0558
AGCTTTAC | -0.0941
ACGGGGAC | -0.177
GAAAGAAC | -0.0462
CGTTGACA | -0.0832
ACGTTTGA | 0.134
CTTGGCAC | -0.156
GCCAGAAC | -0.097
ATATAGCC | 0.151
CGGGTAGC | -0.214
CTTGGCCA | -0.141
ATCTTCCA | -0.0756
ATATCTAC | 0.179
GCCTGTAA | -0.0993
CGGTTGTC | 0.0375
GCGACTAA | 0.121
AGCTCGAC | -0.00688
CCCAGGCC | -0.308
ATTACCTA | 0.349
AGTTATAG | -0.014
GATGGGTA | 0.0805
AAAGTGGC | 0.0837
AATAATCG | 0.247
GCTCATAA | 0.108

Sequence | PBM E-score
ATCAGGTC | 0.0226
AGTGTCCC | -0.0108
CTTTGACA | -0.0512
CACCAGCC | -0.156
ACGGATAC | 0.223
TATAGCGA | -0.00718
CTTCGCAA | -0.0103
GGGCCATA | 0.0202
TCTCTTAA | 0.07
AAACATGA | 0.131
ACCGGTAG | -0.176
GGCCTGGA | -0.317
CACAAGTC | -0.156
CCGTCCCA | 0.0505
ATGATAAT | 0.272
ATGCTCGA | -0.0135
AACCCGAA | -0.102
CTACACTC | -0.0261
TGCTACCA | -0.0215
ACCTCTTG | -0.128
TAGCACGA | -0.0771
AGCCTAGC | -0.181
AACCCTCT | -0.204
AGACCCGA | 0.0606
CCGCGTCA | -0.145

Sequence | PBM E-score
AATCGAAG | 0.155
ATGGCTGA | -0.0318
CGCCGGAC | -0.205
CACTCCGG | 0.111
CAATCCTG | 0.108
CCGATGCC | -0.0431
ATTTGCGG | 0.127
TAGCGAGA | -0.0875
CGGCCTCA | -0.0357
ACAACTTC | 0.296
ACACTTTG | -0.0118
GAATTAGA | 0.143
GCTGCAAA | 0.0746
TTATGAAA | 0.238
AGCTCGTC | -0.246
GACTATCC | -0.158
ATTAGTAG | 0.0962
ACACCTCT | 0.0161
AACAACTT | 0.187
GCCACGGA | -0.125
CTCCCATC | -0.017
CAGAGACA | -0.232
CCGGGTAC | -0.25
CTCACCCA | -0.081
ATTAGACC | -0.248

Sequence | PBM E-score
CCGCAAAA | -0.0132
CAACGACC | -0.0159
GTGGGAAA | 0.0739
CCGATTCA | -0.0917
AGGACCCC | -0.144
CGGGCCCA | -0.284
AATCGAAA | 0.1
GCAACGAC | -0.118
CTCATGTA | 0.127
AAAGCGGG | -0.15
CGTGACAC | 0.0439
CGCGACTC | -0.0989
TATAGAGA | -0.101
CCATTTCA | -0.0326
AGCAGATG | 0.004
CGTATTCA | 0.132
ATATCGAC | 0.249
CGATTACG | 0.389
AGGTTGAT | 0.0144
ATACCAGC | -0.0404
GACCTACC | -0.0892
ATTTGAAG | -0.113
CCGACTCA | -0.031
CAAGAGTA | -0.0476
GAGACCAC | -0.159

As a working copy, some entries already given.
Sequence | PBM E-score
TAGCACGA | -0.0771
AGCCTAGC | -0.181
AACCCTCT | -0.204
AGACCCGA | 0.0606
CCGCGTCA | -0.145
AATCGAAG | 0.155
ATGGCTGA | -0.0318
CGCCGGAC | -0.205
CACTCCGG | 0.111
CAATCCTG | 0.108
CCGATGCC | -0.0431
ATTTGCGG | 0.127
TAGCGAGA | -0.0875
CGGCCTCA | -0.0357
ACAACTTC | 0.296
ACACTTTG | -0.0118
GAATTAGA | 0.143
GCTGCAAA | 0.0746
TTATGAAA | 0.238
AGCTCGTC | -0.246
GACTATCC | -0.158
ATTAGTAG | 0.0962
ACACCTCT | 0.0161
AACAACTT | 0.187
GCCACGGA | -0.125
CTCCCATC | -0.017
CAGAGACA | -0.232
CCGGGTAC | -0.25
CTCACCCA | -0.081
ATTAGACC | -0.248
CCGCAAAA | -0.0132
CAACGACC | -0.0159
GTGGGAAA | 0.0739
CCGATTCA | -0.0917
AGGACCCC | -0.144
CGGGCCCA | -0.284
AATCGAAA | 0.1
GCAACGAC | -0.118
CTCATGTA | 0.127
AAAGCGGG | -0.15
CGTGACAC | 0.0439
CGCGACTC | -0.0989
TATAGAGA | -0.101
CCATTTCA | -0.0326
AGCAGATG | 0.004
CGTATTCA | 0.132
ATATCGAC | 0.249
CGATTACG | 0.389
AGGTTGAT | 0.0144
ATACCAGC | -0.0404
GACCTACC | -0.0892
ATTTGAAG | -0.113

(listing goes on)

Sequence | PBM E-score
CGATCGGA | -0.125
AGTTTGTA | 0.104
GAGTTCGA | 0.113
AATCGGGG | -0.0283
GCTAGCAA | -0.04
CGCGGGGC | -0.0916
AATATAGC | 0.0896
AGAAGAAA | -0.0302
CAGCCGCC | -0.0669
ACTAGAGC | 0.0367
ACATAGGA | -0.132
GCTCTCGA | -0.0134
GAGGTCCC | -0.106
TACTAGTA | 0.179
AATTATCG | 0.156
TGCGCACA | -0.026
ATATTACC | 0.317
GCCCCTTA | -0.134
GCCCTAAA | -0.335
ACTCTTCG | -0.0848
ACTCCAGT | 0.121
GAGTTTAC | 0.125
CTACTGTC | 0.0684
ACCAAACG | -0.038
ACTAACAT | 0.192

Sequence | PBM E-score
AGTACGAG | 0.0932
CGACTTAG | -0.105
AACGGCGT | -0.0715
GCTAACTA | 0.18
ATGTGTAC | 0.0375
ATGAGCTG | 0.0605
AGCACTAC | -0.0958
AAGTGCCT | -0.25
ACCCTGCG | -0.145
ATTCGCCC | -0.0199
CAACCGGC | -0.00301
ATTAGCTA | 0.3
ATAGCGCC | 0.0692
CAAGCAGA | 0.0983
AAGGTGGG | -0.218
AACCTAAC | 0.14
TGCCCAAA | -0.145
CCAGATAA | 0.0884
GGCATTTA | -0.0216
CCTGGTGC | -0.19
GCGGAGGA | -0.226
AAACGGAA | 0.244
CCAGACGC | -0.0958
CAACTAAC | 0.158
ACGCGTGG | -0.113

Sequence | PBM E-score
CCTATGGA | -0.0351
AGTTGGAC | -0.104
CTCCTTGA | -0.164
CACCAGGG | -0.274
ACCAAGCT | 0.15
CATGTTGG | -0.00808
GGCAATCA | 0.102
ACGAGTAT | 0.14
AGTCCCAG | -0.199
AAAAAATT | 0.0788
CCGTTAAC | 0.0424
GGGCCGCA | -0.252
ATACCCTG | -0.0338
AGATCAAA | 0.0416
AGAATAAG | 0.152
GCCATCTA | -0.0283
CCTGTAGA | 0.0645
CTAAGCCA | -0.074
ATAATAAC | 0.206
